Values of other authors, collected in patent publication US20250295562A1, “Formulation for treatment of melasma, hyperpigmentation, and dark spots” (priority 2024, published 2025).
At least one compound was matched to its structure with a doubt left.

## CC(C)=CCC1C(=O)C(C(=O)CC(C)C)=C(O)C(O)(CC=C(C)C)C1=O (centres unmarked) [humulone]
collagenase
  anticollagenase inhibitory activity: moderate to strong
bacteria
  bactericidal activity: exhibited bactericidal activity
